Protein sequences, listed by entry. Tags and fused reporters are not part of them. Lines headed by an entry give the natural chain unless they say otherwise; changes in a name come on top.
UniProt P08253: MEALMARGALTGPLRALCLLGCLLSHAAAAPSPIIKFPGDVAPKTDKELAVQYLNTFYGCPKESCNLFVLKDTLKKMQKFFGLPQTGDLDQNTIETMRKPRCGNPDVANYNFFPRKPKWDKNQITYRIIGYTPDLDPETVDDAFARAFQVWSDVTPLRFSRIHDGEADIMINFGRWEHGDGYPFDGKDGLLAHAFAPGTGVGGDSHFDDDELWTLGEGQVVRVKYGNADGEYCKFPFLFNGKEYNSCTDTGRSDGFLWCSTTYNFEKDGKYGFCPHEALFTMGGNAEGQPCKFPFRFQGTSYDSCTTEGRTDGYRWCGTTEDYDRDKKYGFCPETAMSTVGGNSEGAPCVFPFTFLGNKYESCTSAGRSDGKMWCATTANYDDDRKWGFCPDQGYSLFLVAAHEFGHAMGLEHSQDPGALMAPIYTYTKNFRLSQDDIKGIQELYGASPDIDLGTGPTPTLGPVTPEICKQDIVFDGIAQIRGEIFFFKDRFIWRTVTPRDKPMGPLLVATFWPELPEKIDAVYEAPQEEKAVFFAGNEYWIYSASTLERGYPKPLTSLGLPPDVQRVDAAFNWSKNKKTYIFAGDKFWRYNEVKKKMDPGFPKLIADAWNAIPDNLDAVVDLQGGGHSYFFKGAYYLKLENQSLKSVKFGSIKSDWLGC
UniProt P22607: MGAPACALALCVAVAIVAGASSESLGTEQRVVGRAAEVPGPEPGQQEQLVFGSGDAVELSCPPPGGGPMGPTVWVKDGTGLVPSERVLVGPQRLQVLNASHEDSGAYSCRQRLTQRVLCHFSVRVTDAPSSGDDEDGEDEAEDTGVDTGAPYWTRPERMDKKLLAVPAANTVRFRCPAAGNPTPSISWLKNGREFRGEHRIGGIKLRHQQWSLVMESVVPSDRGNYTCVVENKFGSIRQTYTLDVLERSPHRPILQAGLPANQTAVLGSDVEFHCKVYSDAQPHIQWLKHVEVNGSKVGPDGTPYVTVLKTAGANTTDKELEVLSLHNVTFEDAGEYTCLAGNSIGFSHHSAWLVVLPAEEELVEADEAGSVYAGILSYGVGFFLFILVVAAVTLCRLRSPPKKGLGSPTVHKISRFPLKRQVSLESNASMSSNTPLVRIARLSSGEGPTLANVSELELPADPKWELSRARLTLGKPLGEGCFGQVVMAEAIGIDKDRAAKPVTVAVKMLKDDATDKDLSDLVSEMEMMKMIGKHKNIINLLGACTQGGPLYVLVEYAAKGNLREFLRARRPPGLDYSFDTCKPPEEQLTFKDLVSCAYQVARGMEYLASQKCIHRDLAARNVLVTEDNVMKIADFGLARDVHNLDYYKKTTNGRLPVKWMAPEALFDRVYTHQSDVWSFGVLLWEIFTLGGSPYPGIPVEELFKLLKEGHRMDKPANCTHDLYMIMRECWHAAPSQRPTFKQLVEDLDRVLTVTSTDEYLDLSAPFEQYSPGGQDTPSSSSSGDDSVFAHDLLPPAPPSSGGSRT
UniProt Q96MS0: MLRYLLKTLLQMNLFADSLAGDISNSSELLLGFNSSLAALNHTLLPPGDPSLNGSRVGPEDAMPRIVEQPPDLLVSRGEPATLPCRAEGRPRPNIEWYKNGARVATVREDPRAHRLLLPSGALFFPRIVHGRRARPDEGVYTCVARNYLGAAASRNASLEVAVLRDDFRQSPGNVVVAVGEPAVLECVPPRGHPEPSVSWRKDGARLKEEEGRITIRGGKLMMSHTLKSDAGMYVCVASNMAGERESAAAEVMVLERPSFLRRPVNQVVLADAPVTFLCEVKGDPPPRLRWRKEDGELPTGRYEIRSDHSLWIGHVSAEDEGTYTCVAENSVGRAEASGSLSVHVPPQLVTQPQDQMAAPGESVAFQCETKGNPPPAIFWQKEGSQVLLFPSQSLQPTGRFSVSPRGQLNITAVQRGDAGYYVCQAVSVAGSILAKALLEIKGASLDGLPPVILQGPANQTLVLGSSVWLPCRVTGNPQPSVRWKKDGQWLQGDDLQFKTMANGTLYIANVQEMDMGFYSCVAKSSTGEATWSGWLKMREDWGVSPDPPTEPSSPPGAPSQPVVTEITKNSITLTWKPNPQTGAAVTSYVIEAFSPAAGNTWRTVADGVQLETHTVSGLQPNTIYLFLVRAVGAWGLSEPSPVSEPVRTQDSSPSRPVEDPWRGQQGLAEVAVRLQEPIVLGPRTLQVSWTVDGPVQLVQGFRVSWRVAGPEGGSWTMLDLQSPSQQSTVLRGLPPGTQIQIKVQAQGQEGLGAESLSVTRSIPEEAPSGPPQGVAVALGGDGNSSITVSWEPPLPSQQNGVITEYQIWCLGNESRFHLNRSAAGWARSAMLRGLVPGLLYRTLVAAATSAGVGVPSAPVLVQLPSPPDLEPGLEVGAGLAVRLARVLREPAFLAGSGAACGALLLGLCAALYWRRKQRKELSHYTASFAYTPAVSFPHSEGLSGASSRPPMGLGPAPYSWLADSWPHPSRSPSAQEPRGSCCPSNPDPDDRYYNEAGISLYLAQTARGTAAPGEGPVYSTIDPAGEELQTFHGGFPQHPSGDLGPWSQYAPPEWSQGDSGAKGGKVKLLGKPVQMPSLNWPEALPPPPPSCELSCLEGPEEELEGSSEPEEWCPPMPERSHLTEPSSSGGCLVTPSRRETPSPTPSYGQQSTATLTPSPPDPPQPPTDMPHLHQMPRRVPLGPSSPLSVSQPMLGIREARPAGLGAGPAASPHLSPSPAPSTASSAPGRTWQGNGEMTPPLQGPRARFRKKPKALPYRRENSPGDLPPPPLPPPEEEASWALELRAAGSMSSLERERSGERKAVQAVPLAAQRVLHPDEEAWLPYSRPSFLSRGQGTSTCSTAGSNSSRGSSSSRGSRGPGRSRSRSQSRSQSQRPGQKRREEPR
UniProt P21860: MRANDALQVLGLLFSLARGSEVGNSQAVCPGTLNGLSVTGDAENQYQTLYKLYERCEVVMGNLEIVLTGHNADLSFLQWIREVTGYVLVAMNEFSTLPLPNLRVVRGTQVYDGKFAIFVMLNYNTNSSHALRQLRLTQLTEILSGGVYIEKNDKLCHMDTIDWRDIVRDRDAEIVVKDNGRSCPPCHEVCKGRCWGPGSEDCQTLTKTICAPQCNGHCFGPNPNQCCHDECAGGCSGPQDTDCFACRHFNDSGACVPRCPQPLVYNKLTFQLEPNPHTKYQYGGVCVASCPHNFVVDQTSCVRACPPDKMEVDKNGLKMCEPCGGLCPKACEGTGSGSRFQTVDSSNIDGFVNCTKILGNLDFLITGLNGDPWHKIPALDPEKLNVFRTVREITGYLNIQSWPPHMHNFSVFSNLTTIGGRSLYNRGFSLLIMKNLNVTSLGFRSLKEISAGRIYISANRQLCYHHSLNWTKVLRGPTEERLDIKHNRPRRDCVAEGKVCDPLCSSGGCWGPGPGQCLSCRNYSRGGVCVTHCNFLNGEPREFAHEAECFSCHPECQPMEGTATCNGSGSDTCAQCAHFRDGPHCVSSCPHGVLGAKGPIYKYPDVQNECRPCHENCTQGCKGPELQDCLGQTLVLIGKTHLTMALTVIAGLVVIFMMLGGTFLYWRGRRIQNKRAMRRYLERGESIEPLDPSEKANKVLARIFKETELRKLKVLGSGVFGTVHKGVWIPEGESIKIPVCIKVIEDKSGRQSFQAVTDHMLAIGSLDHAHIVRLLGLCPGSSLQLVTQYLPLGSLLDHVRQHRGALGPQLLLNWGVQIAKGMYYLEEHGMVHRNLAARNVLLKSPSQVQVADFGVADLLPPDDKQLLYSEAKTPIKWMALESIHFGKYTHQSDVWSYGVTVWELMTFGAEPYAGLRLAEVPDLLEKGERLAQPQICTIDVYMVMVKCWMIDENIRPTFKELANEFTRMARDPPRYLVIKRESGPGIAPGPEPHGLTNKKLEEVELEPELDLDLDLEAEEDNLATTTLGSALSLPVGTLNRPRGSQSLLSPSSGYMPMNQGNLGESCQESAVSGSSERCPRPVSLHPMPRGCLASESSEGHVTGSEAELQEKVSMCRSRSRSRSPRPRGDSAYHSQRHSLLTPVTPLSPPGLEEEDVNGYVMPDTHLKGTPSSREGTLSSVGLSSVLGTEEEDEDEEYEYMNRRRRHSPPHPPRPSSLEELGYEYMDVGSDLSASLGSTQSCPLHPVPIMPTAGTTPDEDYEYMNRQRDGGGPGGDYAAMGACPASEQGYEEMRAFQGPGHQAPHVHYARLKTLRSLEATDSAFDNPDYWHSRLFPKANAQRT
UniProt P13202: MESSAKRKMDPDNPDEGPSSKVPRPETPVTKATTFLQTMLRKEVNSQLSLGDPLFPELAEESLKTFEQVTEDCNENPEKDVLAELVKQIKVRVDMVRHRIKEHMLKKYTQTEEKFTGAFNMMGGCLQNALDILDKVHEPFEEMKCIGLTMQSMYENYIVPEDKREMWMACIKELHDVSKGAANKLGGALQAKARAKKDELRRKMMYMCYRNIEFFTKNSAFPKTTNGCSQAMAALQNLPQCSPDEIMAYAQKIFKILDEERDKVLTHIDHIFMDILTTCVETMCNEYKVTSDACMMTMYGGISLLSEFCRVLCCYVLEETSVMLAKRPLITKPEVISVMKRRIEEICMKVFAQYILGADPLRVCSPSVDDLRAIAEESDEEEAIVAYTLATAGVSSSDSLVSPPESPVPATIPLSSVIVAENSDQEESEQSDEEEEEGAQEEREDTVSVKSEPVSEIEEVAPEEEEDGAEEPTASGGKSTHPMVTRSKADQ

In article PMC3917433:

Legend:
Experiment in all cases: peptide or protein array; only the binder purified
[1] = target: matrix metallopeptidase 2 (MMP2) (human) (UniProt P08253)
[2] = target: Fibroblast growth factor receptor 3 isoform 1 precursor (human) (UniProt P22607)
[3] = target: Roundabout-like protein 3 (ROBO3) (human) (UniProt Q96MS0)
[4] = target: V-erb-b2 erythroblastic leukemia viral oncogene homolog 3 (ERBB3) (human) (UniProt P21860)

Measured: binding

Human cytomegalovirus immediate-early protein 1 (from UniProt P13202 1-491)
binds: [1] | [2] | [3] | [4]

Results are given in words; binding and its absence hold for the method and conditions named. Binding calls can cover weak binding; strength is not graded here.
